Experimental findings from PMC3711430 are described below.

The chains behind the UniProt entries cited, without tags or fusion partners.
UniProt Q9DEY9: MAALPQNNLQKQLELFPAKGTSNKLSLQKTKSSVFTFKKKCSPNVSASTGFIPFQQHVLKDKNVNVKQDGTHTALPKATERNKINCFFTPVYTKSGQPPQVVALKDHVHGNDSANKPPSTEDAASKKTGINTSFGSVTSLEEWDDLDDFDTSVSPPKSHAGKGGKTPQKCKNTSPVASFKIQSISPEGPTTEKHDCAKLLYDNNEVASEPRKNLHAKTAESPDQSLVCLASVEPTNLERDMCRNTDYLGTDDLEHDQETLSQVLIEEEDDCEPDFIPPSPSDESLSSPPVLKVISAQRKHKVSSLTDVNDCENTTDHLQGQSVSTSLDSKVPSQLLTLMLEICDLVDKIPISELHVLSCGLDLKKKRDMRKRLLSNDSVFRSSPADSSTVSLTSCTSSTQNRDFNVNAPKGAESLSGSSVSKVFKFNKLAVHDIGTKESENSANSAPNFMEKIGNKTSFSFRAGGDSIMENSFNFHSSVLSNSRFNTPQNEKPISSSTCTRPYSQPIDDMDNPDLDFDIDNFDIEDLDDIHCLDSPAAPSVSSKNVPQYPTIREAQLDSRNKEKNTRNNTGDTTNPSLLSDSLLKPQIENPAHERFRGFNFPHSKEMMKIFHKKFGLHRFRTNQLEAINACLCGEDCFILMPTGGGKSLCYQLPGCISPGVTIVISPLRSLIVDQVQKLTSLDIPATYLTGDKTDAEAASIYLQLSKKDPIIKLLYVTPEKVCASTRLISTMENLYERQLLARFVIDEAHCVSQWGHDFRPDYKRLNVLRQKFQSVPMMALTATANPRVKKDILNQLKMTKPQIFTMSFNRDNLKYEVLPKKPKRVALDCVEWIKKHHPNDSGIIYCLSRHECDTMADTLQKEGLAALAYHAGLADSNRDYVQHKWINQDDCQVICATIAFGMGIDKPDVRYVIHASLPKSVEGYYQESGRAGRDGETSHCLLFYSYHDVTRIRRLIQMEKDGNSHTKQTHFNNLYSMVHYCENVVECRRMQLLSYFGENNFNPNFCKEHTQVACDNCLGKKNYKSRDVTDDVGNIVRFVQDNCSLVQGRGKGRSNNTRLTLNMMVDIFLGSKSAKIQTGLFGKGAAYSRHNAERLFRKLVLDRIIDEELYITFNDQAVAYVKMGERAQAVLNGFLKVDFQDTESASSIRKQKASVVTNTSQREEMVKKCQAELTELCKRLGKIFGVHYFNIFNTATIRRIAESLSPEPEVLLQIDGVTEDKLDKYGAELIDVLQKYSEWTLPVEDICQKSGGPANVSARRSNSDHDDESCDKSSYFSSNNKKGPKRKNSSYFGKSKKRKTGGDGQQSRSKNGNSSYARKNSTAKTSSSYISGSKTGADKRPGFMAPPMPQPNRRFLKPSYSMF

Results are given in words; binding and its absence hold for the method and conditions named. In cells and extracts the contact can be indirect. Some entries that bind do so weakly or less than the wild type.

The assay concerns the target Xenopus BLM (Bloom's helicase) (Xenopus laevis (endogenous in egg extracts)) (UniProt Q9DEY9). In words: co-IP; Xenopus S-phase egg extracts, mock- or FANCD2-depleted, DNA-free or incubated with dsDNA fragments for 10 min; BLM antibody on Sepharose 4B beads, overnight at 4°C; IP buffer 10 mM Tris pH 7.4, 150 mM NaCl, 1% NP-40, 0.5% sodium deoxycholate, 1 mM EDTA, 1 mM DTT; western blot. (In western blotting, separated proteins are transferred to a membrane and probed.)

B1: Xenopus RMI1 (protein, UniProt Q6DDH2 1-557)
chain: MMATSGIANRVKTWLISTWHVKVPDPWLEACINWIQEENGSSLLQAEINKQVFEQWLLTDLRDLEFPVLPANITDSLKCELNGFHAVQMDSLVDISLPAYSQLQKLKGKDSTNEQVTCTTQQSQKPWEAKPTRMLMLQLTDGTQHIQAMEYRPIQALNANLSPGTKMVLQGTIVCRLGVLLLKPENVKVLGGEVEALVAEYTQTKVLSRLIGVEDNTVAQHSNVQEHAAGVAAGELGQALGPSDEDLLASLEENEEFSINNGVPSESGYYSRNENSSISSSTQHQTQDSIVRCWVDDDILEFSINNGVPSESGYYSRNENSSISSSTQHQTQDSIVRQTSFPMLDQTVVHVNVANNHAIEEQFDIDDELFLEEEIQRELEEMSMSQAEVTHGSTDLPTTLSATSHASSASCTSDQNNIDIPPYTYLSTILASKSRSITCVKLKSFIVTLNGNLSHSCGLWNIKAKISDGTGYLNVEFSDDVLTELIGFTVPEMKTLKKDPSQQSTLMEGLQKCQRMLTDFCGVMTVSYNPAKEEAVVLSLQDVTEEIMQSLQKLLRS
Take B1: the binding result is on record as “binds”.
